The target in test [1] is T1, Human B7-H3-ECD (His tag) (human) (UniProt Q5ZPR3).
T1 sequence: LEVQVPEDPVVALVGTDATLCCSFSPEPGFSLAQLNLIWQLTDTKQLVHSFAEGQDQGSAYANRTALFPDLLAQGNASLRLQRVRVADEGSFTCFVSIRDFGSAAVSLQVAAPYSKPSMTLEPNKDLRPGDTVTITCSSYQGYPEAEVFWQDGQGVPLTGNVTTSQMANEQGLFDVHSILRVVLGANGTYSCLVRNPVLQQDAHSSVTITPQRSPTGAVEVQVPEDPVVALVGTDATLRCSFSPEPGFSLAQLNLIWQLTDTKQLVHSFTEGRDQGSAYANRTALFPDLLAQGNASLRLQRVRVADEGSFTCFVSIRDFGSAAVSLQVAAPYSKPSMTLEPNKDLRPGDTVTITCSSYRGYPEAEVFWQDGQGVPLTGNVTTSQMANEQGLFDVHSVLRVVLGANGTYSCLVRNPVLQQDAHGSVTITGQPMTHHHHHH
The test is described as follows: SPR, mAb captured.

Test [2] concerns the target T1, Human B7-H3-ECD (His tag) (human). Briefly: SPR (Biacore).

Results are given in words; binding and its absence hold for the method and conditions named. Some entries that bind do so weakly or less than the wild type. Sequences can lack the tags named with a protein.

B1: Ab7 (antibody, mouse IgG1, V domains shown)
VH: EVQLVESGENLVKPGGSLKLSCAASGFSFRGYGMSWVRQTPDKRLEWVAAISTGGNYTYYPDSVQGRFTISRDNANNTLYLQMSSLKSEDTAMYYCARRGGNYAGFAYWGQGTLVTVSA
VL: DIQMTQSPASLSVSVGETVTITCRPSENIYSNLAWYQQKQGKSPQLLVYAATNLADGVPSRFSGSGSGTQYSLKINSLQSEDFGTYYCQHFWGTPFTFGSGTKLEIK
Turning to B1, in test [1], the binding result is on record as “binds”.

B2: huAb18v1 (antibody, V domains shown)
VH: EVQLVQSGAEVKKPGSSVKVSCKASGYSFTSYTIHWVRQAPGQGLEWMGYINPNSRNTDYNQKFKDRVTITADKSTSTAYMELSSLRSEDTAVYYCARYSGSTPYWYFDVWGQGTTVTVSS
VL: DIQLTQSPSFLSASVGDRVTITCRASSSVSYMNWYQQKPGKAPKLLIYATSNLASGVPSRFSGSGSGTEFTLTISSLQPEDFATYYCQQWSSNPLTFGQGTKLEIK
Turning to B2, the binding entry in test [2] is given as “binds”.

B3: huAb18v8 (antibody, V domains shown)
VH: EVQLVQSGAEVKKPGSSVKVSCKASGYSFTSYTIHWVRQAPGQGLEWIGYINPNSRNTDYNQKFKDRTTLTADRSTSTAYMELSSLRSEDTAVYYCARYSGSTPYWYFDVWGQGTTVTVSS
VL: DIQLTQSPSFLSASVGDRVTITCRASSSVSYMNWYQQKPGKAPKPWIYATSNLASGVPSRFSVSGSGTEHTLTISSLQPEDFATYYCQQWSSNPLTFGQGTKLEIK
Take B3: in test [2], the binding result is reported as “binds”.

B4: huAb18v10 (antibody, V domains shown)
VH: EVQLVQSGAEVKKPGSSVKVSCKASGYSFTSYTIHWVRQAPGQGLEWMGYINPNSRNTDYAQKFQGRVTLTADKSTSTAYMELSSLRSEDTAVYYCARYSGSTPYWYFDVWGQGTTVTVSS
VL: DIQLTQSPSFLSASVGDRVTITCRASSSVSYMNWYQQKPGKAPKPWIYATSNLASGVPSRFSVSGSGTEHTLTISSLQPEDFATYYCQQWSSNPLTFGQGTKLEIK
As for B4, the binding entry in test [2] is “binds”.

B5: huAb18v9 (antibody, V domains shown)
VH: EVQLVQSGAEVKKPGSSVKVSCKASGYSFTSYTIHWVRQAPGQGLEWIGYINPNSRNTDYNQKFKDRTTLTADRSTSTAYMELSSLRSEDTAVYYCARYSGSTPYWYFDVWGQGTTVTVSS
VL: EIVLTQSPDFQSVTPKEKVTITCRASSSVSYMNWYQQKPDQSPKPWIYATSNLASGVPSRFSVSVSGTDHTLTINSLEAEDAATYYCQQWSSNPLTFGQGTKLEIK
Regarding B5, the binding entry in test [2] is given as “binds”.

B6: huAb18v4 (antibody, V domains shown)
VH: EVQLVQSGAEVKKPGSSVKVSCKASGYSFTSYTIHWVRQAPGQGLEWMGYINPNSRNTDYAQKFQGRVTLTADKSTSTAYMELSSLRSEDTAVYYCARYSGSTPYWYFDVWGQGTTVTVSS
VL: DIQLTQSPSFLSASVGDRVTITCRASSSVSYMNWYQQKPGKSPKPWIYATSNLASGVPSRFSVSVSGTEHTLTISSLQPEDFATYYCQQWSSNPLTFGQGTKLEIK
In the case of B6, the binding result in test [2] is recorded as “binds”.

B7: huAb18v7 (antibody, V domains shown)
VH: EVQLVQSGAEVKKPGSSVKVSCKASGYSFTSYTIHWVRQAPGQGLEWMGYINPNSRNTDYAQKFQGRVTLTADKSTSTAYMELSSLRSEDTAVYYCARYSGSTPYWYFDVWGQGTTVTVSS
VL: EIVLTQSPDFQSVTPKEKVTITCRASSSVSYMNWYQQKPDQSPKPWIYATSNLASGVPSRFSVSVSGTDHTLTINSLEAEDAATYYCQQWSSNPLTFGQGTKLEIK
With B7, the binding entry in test [2] is recorded as “binds”.

B8: huAb18v3 (antibody, V domains shown)
VH: EVQLVQSGAEVKKPGSSVKVSCKASGYSFTSYTIHWVRQAPGQGLEWIGYINPNSRNTDYNQKFKDRTTLTADRSTSTAYMELSSLRSEDTAVYYCARYSGSTPYWYFDVWGQGTTVTVSS
VL: DIQLTQSPSFLSASVGDRVTITCRASSSVSYMNWYQQKPGKSPKPWIYATSNLASGVPSRFSVSVSGTEHTLTISSLQPEDFATYYCQQWSSNPLTFGQGTKLEIK
For B8, the binding entry in test [2] is listed as “binds”.

B9: huAb18v6 (antibody, V domains shown)
VH: EVQLVQSGAEVKKPGSSVKVSCKASGYSFTSYTIHWVRQAPGQGLEWMGYINPNSRNTDYAQKFQGRVTLTADKSTSTAYMELSSLRSEDTAVYYCARYSGSTPYWYFDVWGQGTTVTVSS
VL: EIVLTQSPDFQSVTPKEKVTITCRASSSVSYMNWYQQKPDQSPKLLIKATSNLASGVPSRFSGSGSGTDFTLTINSLEAEDAATYYCQQWSSNPLTFGQGTKLEIK
In the case of B9, the binding result in test [2] is on record as “binds”.

B10: huAb18v5 (antibody, V domains shown)
VH: EVQLVQSGAEVKKPGSSVKVSCKASGYSFTSYTIHWVRQAPGQGLEWMGYINPNSRNTDYNQKFKDRVTITADKSTSTAYMELSSLRSEDTAVYYCARYSGSTPYWYFDVWGQGTTVTVSS
VL: EIVLTQSPDFQSVTPKEKVTITCRASSSVSYMNWYQQKPDQSPKLLIKATSNLASGVPSRFSGSGSGTDFTLTINSLEAEDAATYYCQQWSSNPLTFGQGTKLEIK
B10: the binding result in test [2] is reported as “binds”.

B11: huAb18v2 (antibody, V domains shown)
VH: EVQLVQSGAEVKKPGSSVKVSCKASGYSFTSYTIHWVRQAPGQGLEWMGYINPNSRNTDYAQKFQGRVTLTADKSTSTAYMELSSLRSEDTAVYYCARYSGSTPYWYFDVWGQGTTVTVSS
VL: DIQLTQSPSFLSASVGDRVTITCRASSSVSYMNWYQQKPGKAPKLLIYATSNLASGVPSRFSGSGSGTEFTLTISSLQPEDFATYYCQQWSSNPLTFGQGTKLEIK
Consider B11, for which, in test [2], the binding entry was “binds”.

The values are drawn from patent US20200338209A1, “ANTI-B7-H3 ANTIBODIES AND ANTIBODY DRUG CONJUGATES” (AbbVie Inc., priority 2016, published 2020).
